Results published in article doi:10.1101/2024.12.22.629540.
No constants are given. Whether binding was seen depends on the method and setting. For some assays here: Binding seen in cells or lysates may run through a third protein. Some binding calls cover weakened binding; strength is not graded here. For some assays here: Where a sequence is shown, tags or fusion partners need not be part of it.

Amino acid sequences for entries named in this document (tags omitted).
UniProt P70610: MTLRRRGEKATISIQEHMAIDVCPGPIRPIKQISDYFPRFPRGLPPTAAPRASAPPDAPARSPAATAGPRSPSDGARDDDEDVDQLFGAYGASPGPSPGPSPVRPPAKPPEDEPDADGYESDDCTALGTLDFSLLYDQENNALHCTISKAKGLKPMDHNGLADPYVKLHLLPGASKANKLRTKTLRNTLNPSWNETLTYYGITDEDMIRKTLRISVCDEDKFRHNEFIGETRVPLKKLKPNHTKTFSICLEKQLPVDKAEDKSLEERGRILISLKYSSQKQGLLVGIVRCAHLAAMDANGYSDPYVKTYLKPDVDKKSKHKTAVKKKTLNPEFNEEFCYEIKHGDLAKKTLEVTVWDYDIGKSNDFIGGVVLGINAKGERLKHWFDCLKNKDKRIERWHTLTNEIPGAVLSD
UniProt P42224: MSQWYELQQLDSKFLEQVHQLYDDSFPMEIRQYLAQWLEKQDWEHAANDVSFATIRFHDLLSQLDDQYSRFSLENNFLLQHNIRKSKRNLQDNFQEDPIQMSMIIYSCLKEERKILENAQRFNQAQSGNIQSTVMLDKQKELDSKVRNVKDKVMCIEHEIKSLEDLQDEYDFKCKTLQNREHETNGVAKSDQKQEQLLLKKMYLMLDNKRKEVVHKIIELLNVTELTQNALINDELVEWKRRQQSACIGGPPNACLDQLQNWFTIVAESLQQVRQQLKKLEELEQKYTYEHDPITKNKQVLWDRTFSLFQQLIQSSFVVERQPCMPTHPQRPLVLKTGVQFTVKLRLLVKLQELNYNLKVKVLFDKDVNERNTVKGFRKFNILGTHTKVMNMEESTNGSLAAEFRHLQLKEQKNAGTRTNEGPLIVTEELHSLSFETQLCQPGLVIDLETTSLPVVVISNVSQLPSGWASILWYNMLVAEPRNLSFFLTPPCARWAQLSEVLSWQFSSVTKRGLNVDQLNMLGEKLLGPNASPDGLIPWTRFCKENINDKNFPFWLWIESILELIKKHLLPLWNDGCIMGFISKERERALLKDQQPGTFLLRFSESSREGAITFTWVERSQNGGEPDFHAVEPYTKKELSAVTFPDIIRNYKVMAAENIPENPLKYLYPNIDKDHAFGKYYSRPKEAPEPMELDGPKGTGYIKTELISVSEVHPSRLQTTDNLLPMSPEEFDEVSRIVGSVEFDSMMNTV
UniProt Q7TQN4: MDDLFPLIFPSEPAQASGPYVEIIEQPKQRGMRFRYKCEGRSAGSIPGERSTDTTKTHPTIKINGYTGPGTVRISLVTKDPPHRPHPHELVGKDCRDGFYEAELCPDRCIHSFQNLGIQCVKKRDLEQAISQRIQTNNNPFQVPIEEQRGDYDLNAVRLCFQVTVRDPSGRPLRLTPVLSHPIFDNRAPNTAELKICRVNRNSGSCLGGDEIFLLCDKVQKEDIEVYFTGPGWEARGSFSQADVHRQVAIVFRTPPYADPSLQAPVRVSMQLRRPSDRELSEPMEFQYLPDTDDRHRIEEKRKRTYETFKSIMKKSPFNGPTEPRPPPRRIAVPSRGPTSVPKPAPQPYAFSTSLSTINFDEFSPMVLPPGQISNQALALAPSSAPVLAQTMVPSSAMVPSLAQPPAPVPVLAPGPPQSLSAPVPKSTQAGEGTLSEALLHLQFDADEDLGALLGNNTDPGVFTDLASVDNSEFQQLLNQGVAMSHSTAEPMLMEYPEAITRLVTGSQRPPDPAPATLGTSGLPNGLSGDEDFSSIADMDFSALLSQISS
UniProt Q14184: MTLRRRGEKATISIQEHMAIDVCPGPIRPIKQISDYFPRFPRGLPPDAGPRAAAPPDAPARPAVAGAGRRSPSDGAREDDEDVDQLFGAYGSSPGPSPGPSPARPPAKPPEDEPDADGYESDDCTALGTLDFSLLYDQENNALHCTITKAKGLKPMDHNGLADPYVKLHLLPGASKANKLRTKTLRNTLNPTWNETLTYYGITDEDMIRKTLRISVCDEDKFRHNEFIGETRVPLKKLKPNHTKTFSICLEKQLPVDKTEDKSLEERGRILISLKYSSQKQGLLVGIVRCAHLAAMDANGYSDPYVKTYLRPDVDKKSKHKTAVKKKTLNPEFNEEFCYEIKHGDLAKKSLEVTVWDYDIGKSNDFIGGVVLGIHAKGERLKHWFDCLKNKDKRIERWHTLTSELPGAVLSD

What was measured:
Assay in all cases: co-IP
[1] = target: rat DOC2b-GFP (double C2 like domain beta) (rat) (UniProt P70610)
IKKβ-MYCDDK = target: T1, IKKβ-MYCDDK (UniProt O14920)
T1 sequence: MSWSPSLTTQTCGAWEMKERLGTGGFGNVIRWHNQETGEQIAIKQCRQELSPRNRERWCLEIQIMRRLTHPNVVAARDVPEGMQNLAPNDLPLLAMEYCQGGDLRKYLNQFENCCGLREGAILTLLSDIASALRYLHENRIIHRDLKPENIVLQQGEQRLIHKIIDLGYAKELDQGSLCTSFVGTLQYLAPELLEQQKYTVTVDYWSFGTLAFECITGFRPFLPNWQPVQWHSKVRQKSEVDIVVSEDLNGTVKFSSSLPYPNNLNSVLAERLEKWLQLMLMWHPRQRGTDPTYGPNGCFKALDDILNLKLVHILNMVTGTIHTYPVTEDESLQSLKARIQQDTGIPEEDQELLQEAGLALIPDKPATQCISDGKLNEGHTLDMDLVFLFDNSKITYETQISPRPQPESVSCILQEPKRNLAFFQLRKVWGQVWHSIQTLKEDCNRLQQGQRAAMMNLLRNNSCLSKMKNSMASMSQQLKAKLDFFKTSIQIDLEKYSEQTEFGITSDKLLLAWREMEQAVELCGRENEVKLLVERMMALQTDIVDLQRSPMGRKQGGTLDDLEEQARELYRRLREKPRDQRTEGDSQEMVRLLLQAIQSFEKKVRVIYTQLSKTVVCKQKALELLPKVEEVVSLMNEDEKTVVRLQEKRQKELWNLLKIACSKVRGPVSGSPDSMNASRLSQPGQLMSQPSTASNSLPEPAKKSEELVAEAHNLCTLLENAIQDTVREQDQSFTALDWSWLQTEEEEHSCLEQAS

STAT-1-MYCDDK = STAT-1-MYCDDK (UniProt P42224)

Row | Molecule | binding [1] | binding (IKKβ-MYCDDK) | binding (STAT-1-MYCDDK)
1 | NF-κB p65 (from UniProt Q7TQN4 1-550) | binds | – | –
2 | purified recombinant DOC2b (from UniProt Q14184 1-412) | – | binds | binds
3 | IKKβ (protein, UniProt Q9QY78 1-757) MSWSPSLPTQTCGAWEMKERLGTGGFGNVIRWHNQVTGEQIAIKQCRQELSPKNRDRWCLEIQIMRRLNHPNVVAARDVPEGMQNLAPNDLPLLAMEYCQGGDLRRYLNQFENCCGLREGAILTLLSDIASALRYLHENRIIHRDLKPENIVLQQGEKRLIHKIIDLGYAKELDQGSLCTSFVGTLQYLAPELLEQQKYTVTVDYWSFGTLAFECITGFRPFLPNWQPVQWHSKVRQKSEVDIVVSEDLNGTVKFSSSSPFPNNLNSVLAERLEKWLQLMLTWQPRQRGVDPQYGPNGCFRALDDILNLKLVHILNMVTGTIHTYPVMEDESLQSLKTRIREDTGILETDQELLQEAGLVLLPDKPATQCISDSKTNEGLTLDMDLVFLFDNSKMSYETQITPRPQPESVSCVLQEPKRNLSFFQMRKVWGQVWHSIQTLKEDCNRLQQGQRAAMMNLLRNNSCLSKMKNAMASTAQQLKAKLDFFKTSIQIDLEKYREQTEFGITSDKLLLAWREMEQAVEQCGRENDVKVLVERMMALQTDIVDLQRSPMGRKQGGTLDDLEEQARELYRRLREKPRDQRTEGDSQDMVRLLLQAIQSFEKKVRVIYSQLSKTVVCKQKALELLPKVEEVVRLMNEDEKTVVRLQEKRQKELWNLLKIACSKVRGPVSGSPDSMNVSRLSHPGHLMSQPSSACDSLPDSDKKSEELVAEAHALCSRLESALQDTVKQQDRSFTTLDWSWLQMEDEERCGLEQACD | binds | – | –
4 | STAT-1 (protein, UniProt Q9QXK0 1-749) MSQWFELQQLDSKFLEQVHQLYDDSFPMEIRQYLAQWLEKQDWEHAAYDVSFATIRFHDLLSQLDDQYSRFSLENNFLLQHNIRKSKRNLQDNFQEDPVQMSMIIHNCLKEERKILENAQRFNQAQEGNIQNTVMLDKQKELDSKVRNVKDQVMCIEHEIKTLEDLQDEYDFKCKTSQNRESEANGVAKSDQKQEQLLLHKMFLMLDNKRKEIIHKIRELLNSIELTQNTLINDELVEWKRRQQSACIGGPPNACLDQLQSWFTIVAESLQQVRQQLKKLEELEQKFTYEQDPITKNKQVLSDRTFVLFQQLIQSSFVVERQPCMPTHPQRPLVLKTGVQFTVKLRLLVKLQELNYNLKVKVSFDKDVNEKNTVKGFRKFNILGTHTKVMNMEESTNGSLAAEFRHLQLKEQKNAGNRTNEGPLIVTEELHSLSFETQLCQPGLVIDLETTSLPVVVISNVSQLPSGWASILWYNMLVTEPRNLSFFLNPPCAWWSQLSEVLSWQFSSVTKRGLNADQLSMLGEKLLGPNAGPDGLIPWTRFCKENINDKNFSFWPWIDTILELIKKHLLCLWNDGCIMGFISKERERALLKDQQPGTFLLRFSESSREGAITFTWVERSQNGGEPDFHAVEPYTKKELSAVTFPDIIRNYKVMAAENIPENPLKYLYPNIDKDHAFGKYYSRPKEAPEPMELDDPKRTGYIKTELISVSEVHPSRLQSTENLLPMSPEEFDEMSKIVGSEFDSMMSAV | binds | – | –
